Measured values: PubChem BioAssay AID540256 (National Center for Advancing Translational Sciences (NCATS), 2011)
“And” between values parts separate entries of the source, which are not always exact repeats. Identical values can stand only once. Screen size: about 300,000 compounds; about 3,700 (1.2%) were called active. The inconclusive results got no clear call from the source; some entries with a clear call stand among them for comparison. The call rests on the fitted dose curve; tested in HEK293 cells. Potencies of inconclusive entries are doubtful fits and often do not repeat.
Potency means the concentration at half of the fitted maximal effect.

Assay: qHTS for Inhibitors of binding or entry into cells for Lassa Virus; further: nearly all actives have a fitted effect of over 50% in size
Details: Lassa virus pseudotype entry inhibition, cell reporter; series mostly up to 37.9 µM
With Cc1cccc(C(=O)NC2CC3CCCC(C2)N3Cc2ccccc2)c1 (centres undefined) the Potency was “inactive”. For CCOC(=O)c1c(/N=C/c2ccccc2O)sc2c1CCC2, the Potency was “inactive”. For COC(=O)C1CCN(C(=O)c2cc3c(=O)n4cccc(C)c4nc3n2Cc2ccccc2)CC1, the Potency was inconclusive: 6.31 µM [inhibitor, single point]. In the case of CCCCC(=NCCc1c(C)[nH]c2ccc(OC)cc12)C1=C(O)CC(c2ccccc2)CC1=O (centres undefined), the Potency is reported as inconclusive: 8.91 µM [inhibitor, partial curve, poor fit]. For CCOC(=O)C1(Cc2cccc(OC)c2)CCCN(Cc2cc(C(C)C)n[nH]2)C1 (centres undefined), the Potency was inconclusive: 3.55 µM [inhibitor, partial curve, poor fit]. With CN(C)CCCn1c(=O)n(Cc2ccco2)c(=O)c2c3c(sc21)CCCCC3 the Potency was inconclusive: 20 µM [inhibitor, single point]. In the case of COc1ccc(-c2cn(-c3ccc(OC)cc3)c3[n+]2-c2ccccc2CC3)cc1, the Potency is reported as inconclusive: 35.5 µM [inhibitor, single point]. In the case of COc1ccc(-c2ccnc3nc(N4CCN(c5ccccc5)CC4)nn23)cc1, the Potency is reported as inconclusive: 8.2 µM [inhibitor, partial curve]. For O=C(OCC(=O)N1CCN(C(=O)c2ccco2)CC1)c1ccccc1, the Potency was “inactive”. With CCCOc1ccc(N2C(=O)CC(N(CCc3ccccc3)C(=O)c3ccccc3)C2=O)cc1 (centres undefined) the Potency was “inactive”. In the case of Cc1ccc2nc3c(c(Nc4ccc5c(c4)OCCO5)c2c1)CCC3, the Potency is reported as active: 14.1 µM. For COc1ccc(CCNc2c(C)c(C)nc3ncnn23)cc1, the Potency was inconclusive: 2.59 µM [inhibitor, full curve, poor fit]. For CS(=O)(=O)N(CC(=O)N/N=C/c1cccc2c1OCCO2)c1ccccc1Br, the Potency was “inactive”. With CC(CS(=O)(=O)c1ccccc1[N+](=O)[O-])N1CCOCC1 (centres undefined) the Potency was “inactive”. With N#Cc1nccnc1N1CCN(C(=O)Nc2ccccc2)CC1 the Potency was “inactive”. With CCOc1cccc2sc(=NC(=O)c3ccco3)n(CC(=O)OC)c12 the Potency was “inactive”. For CC(=O)c1sc(NC(=O)c2ccc3c(c2)OCO3)nc1C, the Potency was inconclusive: 31.6 µM [inhibitor, single point]. For CN(CCc1ccccn1)C(=O)CCc1nnc(CCCc2ccccc2)o1, the Potency was inconclusive: 1.41 µM [activator, partial curve, poor fit]. In the case of CCOc1ccc(Br)cc1S(=O)(=O)NCc1ccc(S(N)(=O)=O)cc1, the Potency is reported as “inactive”. In the case of COc1ccc(C(=O)C2CCCN(C/C=C/c3ccccc3OC)C2)c(OC)c1 (centres undefined), the Potency is reported as “inactive”. For CC(=O)N1CC=CC1(CC(C)C)C(=O)NCCc1c[nH]c2ccccc12 (centres undefined), the Potency was “inactive”. For COc1ccc(Cn2nnnc2C(C(C)C)N(Cc2ccco2)Cc2cccs2)cc1 (centres undefined), the Potency was inconclusive: 15.8 µM [inhibitor, single point]. For CC(C)c1ccc(-n2nc3ccc(N)cc3n2)cc1, the Potency was inconclusive: 0.631 µM [inhibitor, single point]. With CC(CCc1ccccc1)NC(=O)/C=C/c1ccccc1 (centres undefined) the Potency was inconclusive: 31.6 µM [inhibitor, single point]. With CCN(C(=O)CCCCC(=O)N(CC)c1ccccc1)c1ccccc1 the Potency was inconclusive: 35.5 µM [inhibitor, single point]. In the case of Cc1cccc(NC(=S)N/C(=N/S(=O)(=O)c2ccccc2)c2ccccc2)c1, the Potency is reported as inconclusive: 25.1 µM [inhibitor, single point] and inconclusive: 5.62 µM [activator, single point]. With COc1ccc(C(=O)Nc2nc3ccccc3[nH]2)cc1 the Potency was inconclusive: 8.91 µM [inhibitor, full curve, poor fit]. For O=C(NC1CCCCC1)c1c[nH]c2ccc(S(=O)(=O)Nc3ccccc3F)cc2c1=O, the Potency was “inactive”. In the case of CC(C)(C)c1ccc(C(=O)NC(Cc2c[nH]c3ccccc23)C(=O)OCC(=O)c2ccccc2)cc1 (centres undefined), the Potency is reported as inconclusive: 1.58 µM [inhibitor, full curve]. In the case of O=C1CC(c2ccc(Cl)cc2)CC(O)=C1C=NCc1ccc(Cl)c(Cl)c1 (centres undefined), the Potency is reported as inconclusive: 16.4 µM [inhibitor, partial curve]. For Cc1n[nH]c(C)c1N1C(=O)c2cccc3c(Br)ccc(c23)C1=O, the Potency was inconclusive: 22.4 µM [inhibitor, single point]. With COc1cc(/C=c2\sc3n(c2=O)C(c2ccccc2)C(c2ccccc2)=NN=3)ccc1O (centres undefined) the Potency was inconclusive: 35.5 µM [inhibitor, single point]. In the case of C/C(CC(=O)Nc1ccc([N+](=O)[O-])cc1)=N\NC(=O)c1ccccc1[N+](=O)[O-], the Potency is reported as “inactive”. With Cc1ccc(NS(=O)(=O)c2cc([N+](=O)[O-])ccc2NNC(=S)Nc2cccc(Cl)c2)c(C)c1 the Potency was inconclusive: 25.9 µM [inhibitor, partial curve, poor fit]. With CCN(CC(=O)NCc1ccc(F)cc1)C(=O)Cc1c(F)cccc1Cl the Potency was inconclusive: 10 µM [inhibitor, partial curve, poor fit]. In the case of CC1CCN(C(=O)CSc2ccc(-c3ccc(F)cc3)nn2)CC1, the Potency is reported as inconclusive: 5.62 µM [inhibitor, full curve, poor fit]. In the case of CCc1ccc(CNc2ccc3c(c2)ncn3C)cc1, the Potency is reported as inconclusive: 29.1 µM [inhibitor, single point]. In the case of COc1ccc(O[C@H]2C=C[C@@H](c3ccccc3)O[C@H]2COC(=O)CCC(C)=NO[C@H](C)c2cn([C@H](CO)Cc3ccccc3)nn2)cc1, the Potency is reported as inconclusive: 0.0008 µM [activator]. In the case of Nc1ncccc1OCc1cccc(C(F)(F)F)c1, the Potency is reported as inconclusive: 11.2 µM [inhibitor, partial curve, poor fit]. With CCOC(=O)C1CCCN(S(=O)(=O)c2cc(OCC(=O)NC3CCCCC3)c(C)cc2Cl)C1 (centres undefined) the Potency was inconclusive: 23.1 µM [inhibitor, single point]. For O=[N+]([O-])c1ccc(Sc2n[nH]c(-c3ccco3)n2)nc1, the Potency was inconclusive: 1.58 µM [inhibitor, full curve, poor fit]. For O=C(Nc1ccccc1)c1ccc2c(c1)OCCO2, the Potency was inconclusive: 35.5 µM [inhibitor, single point]. With CC1CCN(CC(=O)Nc2nc(-c3ccccc3)cs2)CC1 the Potency was inconclusive: 1.26 µM [inhibitor, full curve, poor fit]. In the case of Cc1ccc(C(=O)c2cc([N+](=O)[O-])ccc2N2CCCCC2)c(C)c1, the Potency is reported as inconclusive: 0.517 µM [inhibitor, full curve]. In the case of COc1ccc(CN(C)CC(=O)Nc2cccc(S(=O)(=O)N(C)c3ccccc3)c2)c(OC)c1, the Potency is reported as inconclusive: 35.5 µM [inhibitor, partial curve, poor fit]. For CCOC(=O)N[C@H](Cc1c[nH]c2ccccc12)C(=O)NC1CC1, the Potency was inconclusive: 2.82 µM [inhibitor, partial curve]. For O=C(Nc1ccc(S(=O)(=O)Nc2ccc(Cl)cc2)cc1)C1CCCO1 (centres undefined), the Potency was inconclusive: 8.2 µM [inhibitor, partial curve]. In the case of CC1CC(C)CN(CCCNC(=O)C2CCCN(c3nnc(N4CCCC4=O)s3)C2)C1 (centres undefined), the Potency is reported as inconclusive: 14.1 µM [activator, single point]. For COc1ccc(-c2cnc(SCCNC(=O)c3ccc4c(c3)OCO4)[nH]2)cc1, the Potency was inconclusive: 0.708 µM [inhibitor, single point]. For COc1ccc(-n2c(CN3CCN(c4ccc(F)cc4)CC3)nc3ccc([N+](=O)[O-])cc3c2=O)c(OC)c1, the Potency was inconclusive: 3.16 µM [inhibitor, partial curve, poor fit]. In the case of Cc1ccnc(NC(=O)CCC2COc3ccccc3O2)c1 (centres undefined), the Potency is reported as “inactive”. In the case of Cc1ccc(C(=O)Nc2ncccc2C)o1, the Potency is reported as “inactive”. In the case of COc1ccc(/C=C2/CCCc3ccccc3C2=O)cc1, the Potency is reported as “inactive”. For S=C(Nc1ccc(OCc2ccccc2)cc1)Nc1cccc(Cl)c1Cl, the Potency was inconclusive: 0.447 µM [activator, full curve]. In the case of CCCS(=O)(=O)N1CCC(CCOc2ccccc2)(C(=O)OCC)CC1, the Potency is reported as inconclusive: 22.4 µM [inhibitor, partial curve, poor fit]. With CCOc1ccc(CN(C)CC(=O)Nc2cccc3ccccc23)cc1OC the Potency was inconclusive: 1.26 µM [inhibitor, single point]. For O=C(Nc1ccc(F)cc1)c1nn(-c2ccccc2)c(=O)cc1Cl, the Potency was inconclusive: 2.82 µM [inhibitor, full curve, poor fit]. For Cc1ccc(S(=O)(=O)N(CC(=O)NC2CC2)c2ccc(C)c(Cl)c2)cc1, the Potency was inconclusive: 0.199 µM [inhibitor, full curve, poor fit]. In the case of O=c1[nH]c(-c2ccccc2)nc2sc(-c3ccccc3)cc12, the Potency is reported as inconclusive: 5.01 µM [inhibitor, full curve, poor fit]. In the case of Cc1ccc(NS(=O)(=O)c2cccc(C(=O)NNC(=O)c3cccn3C)c2)c(C)c1, the Potency is reported as inconclusive: 0.112 µM [inhibitor, full curve, poor fit]. In the case of O=C(Nc1ccccc1)N1CCN2C(=O)c3ccccc3C12c1ccccc1 (centres undefined), the Potency is reported as inconclusive: 11.6 µM [inhibitor, partial curve, poor fit]. With CC(C)C(=O)NC(=S)Nc1ccc(S(=O)(=O)N(C)Cc2ccccc2)cc1 the Potency was inconclusive: 1.26 µM [activator, single point]. In the case of COc1cc(CNCCN2CCOCC2)ccc1OCc1ccccc1Cl, the Potency is reported as inconclusive: 35.5 µM [inhibitor, single point]. With O=C(OCC1CC(c2ccccn2)=NO1)c1ccc(Br)cc1 (centres undefined) the Potency was inconclusive: 0.0517 µM [inhibitor, full curve, poor fit].
